How the values were obtained:
male Long-Evans rats [1] = assay: Arterial blood gases and mean arterial blood pressure in the focal cerebral ischemia model; assay type: in vivo, rat; conditions: 30 minutes after MCA occlusion
male Long-Evans rats [2] = assay: Laser Doppler microvascular blood flow in right parietal cortex during occlusion; assay type: in vivo, rat; conditions: control 20.8±7.7%

SMILES: O=C1NCCc2c(OCCCCN3CCCCC3)cccc21 [DPQ, 3,4-dihydro-5-[4-(1-piperidinyl)-butoxy]-1(2H)-isoquinolinone]
- pH (arterial) (male Long-Evans rats [1]; 5 mg/kg): 7.36 ± 0.02
- pH (arterial) (male Long-Evans rats [1]; 10 mg/kg): 7.34 ± 0.03
- pH (arterial) (male Long-Evans rats [1]; 20 mg/kg): 7.35 ± 0.23
- pH (arterial) (male Long-Evans rats [1]; 40 mg/kg): 7.33 ± 0.024
- relative blood flow in the right parietal cortex, % of the baseline (male Long-Evans rats [2]; 5 mg/kg): 18.7±7.4%
- relative blood flow in the right parietal cortex, % of the baseline (male Long-Evans rats [2]; 10 mg/kg): 21.4±7.7%
- relative blood flow in the right parietal cortex, % of the baseline (male Long-Evans rats [2]; 40 mg/kg): 19.3±11.2%

Reference: patent publication US6380193B1, “Fused tricyclic compounds, methods and compositions for inhibiting PARP activity” (Guilford Pharmaceuticals Inc., priority 1998, dated 2002)
